Source: ChEMBL document CHEMBL3988442, “University of Dundee, Small-Polar-MMV Screening Library” (2021).

Chains of the proteins cited; added tags and fusions are not shown.
UniProt E9BF75, entry or part of it: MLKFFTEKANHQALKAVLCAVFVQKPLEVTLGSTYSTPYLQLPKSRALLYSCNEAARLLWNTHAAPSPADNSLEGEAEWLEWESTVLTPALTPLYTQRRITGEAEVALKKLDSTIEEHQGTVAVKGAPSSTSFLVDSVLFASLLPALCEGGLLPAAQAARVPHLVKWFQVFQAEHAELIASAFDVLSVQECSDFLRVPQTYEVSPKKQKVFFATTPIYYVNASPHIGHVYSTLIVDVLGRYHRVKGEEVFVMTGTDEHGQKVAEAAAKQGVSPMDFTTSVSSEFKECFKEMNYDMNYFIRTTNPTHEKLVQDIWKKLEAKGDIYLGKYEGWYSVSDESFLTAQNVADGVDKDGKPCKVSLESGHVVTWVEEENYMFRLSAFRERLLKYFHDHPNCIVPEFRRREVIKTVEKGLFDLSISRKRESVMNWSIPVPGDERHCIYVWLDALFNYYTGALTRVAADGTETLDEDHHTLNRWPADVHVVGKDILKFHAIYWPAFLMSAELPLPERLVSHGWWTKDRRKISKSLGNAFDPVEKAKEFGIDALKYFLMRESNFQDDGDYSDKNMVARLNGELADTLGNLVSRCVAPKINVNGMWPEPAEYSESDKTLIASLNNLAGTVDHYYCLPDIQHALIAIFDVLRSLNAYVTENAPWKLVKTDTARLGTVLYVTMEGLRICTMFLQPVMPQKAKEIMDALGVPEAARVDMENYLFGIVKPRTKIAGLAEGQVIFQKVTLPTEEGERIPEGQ

LdMetRS: 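Methionyl-tRNA synthetase (putative), Leishmania donovani (UniProt E9BF75). Primary screen of methionyl-tRNA synthetase; the read-out is not stated. The test concentration is not given. The values are filed as inhibition. Of about 68,000 compounds tested this way, about 24 (0.035%) reached 50% or more in at least one test.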
Mtb heat-shock: 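Assay on Mycobacterium tuberculosis, filed only as a heat shock assay from Cornell; the read-out is not stated. The concentration is filed as 10 mM, unlikely as a test dose, so the dose is not known. Higher reads as stronger inhibition (inferred: compounds with an IC50 in retests scored well above the rest). About 69,000 compounds were tested under these conditions; 1.4% (about 930) showed 50% or more at least once.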

All values are in %.
How 0% and 100% were set is not recorded. Most values in the screen are low, and negative values occur.
This is an unselected part of the compounds tested.
A dash means the value is not listed here; it may have been measured.

{"structure": "CN(CCc1cccc2ccccc12)Cc1nc(N)nc(N(C)C)n1", "LdMetRS": 5.307, "Mtb heat-shock": 75.75}
{"structure": "Cc1nn(C)c(N2CCOCC2)c1CNCc1ccnc(N(C)C)c1", "LdMetRS": 9.722, "Mtb heat-shock": -2.531}
{"structure": "CN(Cc1noc(C2CC2)n1)C1CCCN(c2cccnn2)C1", "stereo": "stereo not drawn", "LdMetRS": 12.25, "Mtb heat-shock": 4.757}
{"structure": "Cc1ccc(C(CCNCCN(C)C)C2CCOC(C)(C)C2)cc1", "stereo": "stereo not drawn", "LdMetRS": 12.94}
{"structure": "O=C(O)C(F)(F)F.O=C(O)C(F)(F)F.[H][C@]12C[C@@H](C(=O)Nc3cccnc3)CO[C@@]1([H])CCN(c1ncc(F)cn1)C2", "Mtb heat-shock": 0.9431}
{"structure": "COC1CCN(c2ccc(F)cc2CN(C)C(=O)c2cc[nH]n2)CC1", "LdMetRS": 13.01, "Mtb heat-shock": 9.138}
{"structure": "CC(CNC(=O)C1(c2ccc(F)cc2)CC1)CN1CCCC1=O", "stereo": "stereo not drawn", "LdMetRS": 0.7519, "Mtb heat-shock": -34.73}
{"structure": "Cn1cc(-c2nnn3c2COC(CNCc2nccs2)C3)cn1", "stereo": "stereo not drawn", "LdMetRS": 13.3, "Mtb heat-shock": -6.83}
{"structure": "CC(NC(=O)Cn1ccc(=O)n(C)c1=O)c1ccccc1F", "stereo": "stereo not drawn", "LdMetRS": 18.03, "Mtb heat-shock": -5.609}
{"structure": "COC(=O)C1CCN(C(=O)c2ccc(C)c(NS(C)(=O)=O)c2)CC1", "LdMetRS": 6.667, "Mtb heat-shock": -17.71}
{"structure": "O=C(NCC(=O)N1CCCC1Cc1cccc(F)c1)c1ccccn1", "stereo": "stereo not drawn", "LdMetRS": 22.85, "Mtb heat-shock": -18.48}
{"structure": "CCOc1ccc(C2SCC(=O)Nc3c2c(=O)[nH]n3C(C)C)cc1", "stereo": "stereo not drawn", "LdMetRS": 1.714, "Mtb heat-shock": 10.68}
{"structure": "Fc1cccc(N2CCCC3(CN(Cc4ccncc4)CCO3)C2)c1", "stereo": "stereo not drawn", "LdMetRS": 15.68}
{"structure": "CCNC(=O)c1cnc(Sc2nccn2C)c(Cl)c1", "LdMetRS": 11.06, "Mtb heat-shock": -0.2323}
{"structure": "OCC1CCN(Cc2cc3c(cc2Br)OCCO3)CC1", "LdMetRS": 12.5, "Mtb heat-shock": -5.032}
{"structure": "CCCC(NC(=O)c1cc(C)n(C2CC2)c1C)c1nnn[nH]1", "stereo": "stereo not drawn", "LdMetRS": 12.68, "Mtb heat-shock": -1.314}
{"structure": "COC(=O)Cn1ccc(NS(=O)(=O)c2ccc3c(c2)CCC3)n1", "LdMetRS": 2.527, "Mtb heat-shock": -48.15}
{"structure": "c1nc(-c2nc(C3CCOC3)no2)cs1", "stereo": "stereo not drawn", "LdMetRS": 9.025, "Mtb heat-shock": -26.06}
{"structure": "COCC(O)CN(C)C(=O)NCc1ccc(S(C)(=O)=O)cc1", "stereo": "stereo not drawn", "LdMetRS": 14.97, "Mtb heat-shock": 3.113}
{"structure": "CCNC(=O)CN(CC)C(=O)c1cccc(Nc2cnn(C)c2)c1", "LdMetRS": 0.7792, "Mtb heat-shock": 7.629}
{"structure": "Cc1ccc(CNC2(Cc3cc(-c4ccc(F)cc4)on3)COC2)o1", "LdMetRS": 11.19, "Mtb heat-shock": -7.067}
{"structure": "CC(C)CNC(=O)C1CC(=O)N(c2n[nH]c3ccccc23)C1", "stereo": "stereo not drawn", "LdMetRS": 5.758, "Mtb heat-shock": -6.24}
{"structure": "Cc1nc(C(C)(C)C)sc1C(=O)NCCNc1ncccn1", "LdMetRS": 18.86, "Mtb heat-shock": -8.988}
{"structure": "OCC1(CCOc2ccccc2)CCCN(c2ccc(Cl)cn2)C1", "stereo": "stereo not drawn", "LdMetRS": 14.72, "Mtb heat-shock": -12.08}
{"structure": "CCc1cc(N2CCN(c3ccc(Cl)cn3)CC2)n2nccc2n1", "LdMetRS": 12.47, "Mtb heat-shock": 18.82}
{"structure": "COC(=O)CNC(=O)c1ccc(OC2CCN(S(C)(=O)=O)CC2)c(Cl)c1", "LdMetRS": 7.865, "Mtb heat-shock": -5.352}
{"structure": "[H][C@@]12CS(=O)(=O)C[C@]1([H])N(C(=O)Cc1cccnc1)CCN2CCC", "Mtb heat-shock": -7.565}
{"structure": "CC(C(=O)N1CCN(CCOc2ccccc2)CC1)n1cc(Cl)cn1", "stereo": "stereo not drawn", "Mtb heat-shock": -15.34}
{"structure": "CCc1nnsc1C(=O)N1CCCC(n2nc(C)nc2C)C1", "stereo": "stereo not drawn", "LdMetRS": 10, "Mtb heat-shock": 19.32}
{"structure": "COc1ccc(OCc2cc(C(=O)N3CCOCC3)n[nH]2)c(Cl)c1", "LdMetRS": 4.7, "Mtb heat-shock": 8.239}
{"structure": "Nc1cc2c(nn1)CCN(C(=O)c1csc(-c3ccco3)n1)C2", "LdMetRS": 15.48, "Mtb heat-shock": -1.073}
{"structure": "Clc1ccc(N2CCN(CCCN3CCCCC3)CC2)nc1", "LdMetRS": 9.424, "Mtb heat-shock": -38.35}
{"structure": "Cc1ccc(-c2cc(N)c(=O)n(CC(=O)NC3CCCCC3)n2)s1", "LdMetRS": 11.99, "Mtb heat-shock": -20.6}
{"structure": "N#Cc1cccc(N2CCCC3(CN(C(=O)[C@H]4CCCO4)CCO3)C2)c1", "stereo": "stereo partly drawn", "LdMetRS": 2.439, "Mtb heat-shock": -6.386}
{"structure": "Cn1nccc1-c1cc(C2CCN(S(C)(=O)=O)CC2)ccn1", "LdMetRS": 17.42, "Mtb heat-shock": -9.893}

Repeated from the top, 4 entries:

structure	LdMetRS	Mtb heat-shock
CN(CCc1cccc2ccccc12)Cc1nc(N)nc(N(C)C)n1	5.307	75.75
Cc1nn(C)c(N2CCOCC2)c1CNCc1ccnc(N(C)C)c1	9.722	-2.531
CN(Cc1noc(C2CC2)n1)C1CCCN(c2cccnn2)C1 (stereo not drawn)	12.25	4.757
Cc1ccc(C(CCNCCN(C)C)C2CCOC(C)(C)C2)cc1 (stereo not drawn)	12.94	-